The source of these data is paper PMC12500468.

Chains of the proteins cited; added tags and fusions are not shown.
UniProt Q93008: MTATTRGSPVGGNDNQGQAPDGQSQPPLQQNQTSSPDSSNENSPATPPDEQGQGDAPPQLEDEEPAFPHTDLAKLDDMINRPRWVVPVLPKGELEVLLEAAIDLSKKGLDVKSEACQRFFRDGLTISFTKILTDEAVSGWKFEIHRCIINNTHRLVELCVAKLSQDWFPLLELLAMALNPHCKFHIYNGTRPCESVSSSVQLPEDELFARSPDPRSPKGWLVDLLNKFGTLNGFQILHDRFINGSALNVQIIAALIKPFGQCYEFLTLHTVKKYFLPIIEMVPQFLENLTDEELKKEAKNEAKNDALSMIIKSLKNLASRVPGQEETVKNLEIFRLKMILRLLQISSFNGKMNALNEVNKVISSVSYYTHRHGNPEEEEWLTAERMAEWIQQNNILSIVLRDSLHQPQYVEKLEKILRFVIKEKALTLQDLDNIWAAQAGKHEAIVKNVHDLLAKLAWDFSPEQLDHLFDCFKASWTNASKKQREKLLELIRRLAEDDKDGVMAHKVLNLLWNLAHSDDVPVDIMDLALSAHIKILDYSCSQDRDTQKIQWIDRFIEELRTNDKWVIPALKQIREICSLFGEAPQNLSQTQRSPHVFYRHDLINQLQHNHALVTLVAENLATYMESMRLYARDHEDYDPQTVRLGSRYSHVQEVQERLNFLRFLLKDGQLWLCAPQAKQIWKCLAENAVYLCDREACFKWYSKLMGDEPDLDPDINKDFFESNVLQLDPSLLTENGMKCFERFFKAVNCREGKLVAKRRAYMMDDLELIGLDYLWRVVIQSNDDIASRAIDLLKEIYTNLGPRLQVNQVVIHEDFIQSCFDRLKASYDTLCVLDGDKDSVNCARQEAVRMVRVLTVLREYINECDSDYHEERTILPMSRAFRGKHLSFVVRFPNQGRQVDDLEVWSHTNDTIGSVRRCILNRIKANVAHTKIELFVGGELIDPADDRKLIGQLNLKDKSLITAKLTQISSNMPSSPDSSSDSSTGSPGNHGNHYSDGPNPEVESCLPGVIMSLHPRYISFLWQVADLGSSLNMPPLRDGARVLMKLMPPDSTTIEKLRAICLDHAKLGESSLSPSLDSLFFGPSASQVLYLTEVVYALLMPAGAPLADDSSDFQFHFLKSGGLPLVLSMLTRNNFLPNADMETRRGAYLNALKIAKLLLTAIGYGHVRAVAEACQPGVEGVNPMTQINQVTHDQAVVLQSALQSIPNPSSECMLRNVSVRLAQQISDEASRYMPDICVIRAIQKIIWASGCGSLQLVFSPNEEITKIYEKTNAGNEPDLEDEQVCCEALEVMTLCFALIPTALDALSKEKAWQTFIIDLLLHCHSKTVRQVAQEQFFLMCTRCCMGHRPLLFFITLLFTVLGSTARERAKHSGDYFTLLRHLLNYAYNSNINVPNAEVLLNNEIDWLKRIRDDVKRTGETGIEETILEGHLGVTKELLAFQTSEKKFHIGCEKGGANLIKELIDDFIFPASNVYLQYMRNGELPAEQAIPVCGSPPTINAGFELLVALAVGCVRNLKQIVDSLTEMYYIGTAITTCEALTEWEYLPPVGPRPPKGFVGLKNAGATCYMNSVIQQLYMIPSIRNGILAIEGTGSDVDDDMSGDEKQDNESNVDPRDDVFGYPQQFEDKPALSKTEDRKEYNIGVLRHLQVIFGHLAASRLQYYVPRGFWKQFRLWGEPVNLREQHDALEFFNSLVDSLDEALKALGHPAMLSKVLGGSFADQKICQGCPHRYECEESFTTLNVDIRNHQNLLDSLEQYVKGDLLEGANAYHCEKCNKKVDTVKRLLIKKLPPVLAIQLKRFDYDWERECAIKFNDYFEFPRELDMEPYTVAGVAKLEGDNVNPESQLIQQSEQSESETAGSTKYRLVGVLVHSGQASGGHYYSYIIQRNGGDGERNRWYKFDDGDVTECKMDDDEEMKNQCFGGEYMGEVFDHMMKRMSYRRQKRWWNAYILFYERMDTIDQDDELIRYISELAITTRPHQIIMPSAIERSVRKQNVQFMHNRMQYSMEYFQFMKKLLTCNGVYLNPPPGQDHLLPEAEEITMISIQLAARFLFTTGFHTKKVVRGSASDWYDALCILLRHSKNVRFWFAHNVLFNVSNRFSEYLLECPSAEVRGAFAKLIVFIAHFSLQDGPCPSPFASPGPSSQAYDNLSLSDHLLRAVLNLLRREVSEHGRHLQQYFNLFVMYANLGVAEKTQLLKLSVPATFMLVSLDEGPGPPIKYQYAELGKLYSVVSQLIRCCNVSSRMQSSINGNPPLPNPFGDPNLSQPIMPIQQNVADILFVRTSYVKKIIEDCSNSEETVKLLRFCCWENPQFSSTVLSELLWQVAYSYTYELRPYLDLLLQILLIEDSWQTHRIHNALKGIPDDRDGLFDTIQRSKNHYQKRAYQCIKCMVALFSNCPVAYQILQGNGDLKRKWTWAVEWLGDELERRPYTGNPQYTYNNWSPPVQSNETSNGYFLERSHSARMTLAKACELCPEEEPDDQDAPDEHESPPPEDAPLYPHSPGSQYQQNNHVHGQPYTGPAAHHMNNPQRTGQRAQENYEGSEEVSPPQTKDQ
UniProt Q13200: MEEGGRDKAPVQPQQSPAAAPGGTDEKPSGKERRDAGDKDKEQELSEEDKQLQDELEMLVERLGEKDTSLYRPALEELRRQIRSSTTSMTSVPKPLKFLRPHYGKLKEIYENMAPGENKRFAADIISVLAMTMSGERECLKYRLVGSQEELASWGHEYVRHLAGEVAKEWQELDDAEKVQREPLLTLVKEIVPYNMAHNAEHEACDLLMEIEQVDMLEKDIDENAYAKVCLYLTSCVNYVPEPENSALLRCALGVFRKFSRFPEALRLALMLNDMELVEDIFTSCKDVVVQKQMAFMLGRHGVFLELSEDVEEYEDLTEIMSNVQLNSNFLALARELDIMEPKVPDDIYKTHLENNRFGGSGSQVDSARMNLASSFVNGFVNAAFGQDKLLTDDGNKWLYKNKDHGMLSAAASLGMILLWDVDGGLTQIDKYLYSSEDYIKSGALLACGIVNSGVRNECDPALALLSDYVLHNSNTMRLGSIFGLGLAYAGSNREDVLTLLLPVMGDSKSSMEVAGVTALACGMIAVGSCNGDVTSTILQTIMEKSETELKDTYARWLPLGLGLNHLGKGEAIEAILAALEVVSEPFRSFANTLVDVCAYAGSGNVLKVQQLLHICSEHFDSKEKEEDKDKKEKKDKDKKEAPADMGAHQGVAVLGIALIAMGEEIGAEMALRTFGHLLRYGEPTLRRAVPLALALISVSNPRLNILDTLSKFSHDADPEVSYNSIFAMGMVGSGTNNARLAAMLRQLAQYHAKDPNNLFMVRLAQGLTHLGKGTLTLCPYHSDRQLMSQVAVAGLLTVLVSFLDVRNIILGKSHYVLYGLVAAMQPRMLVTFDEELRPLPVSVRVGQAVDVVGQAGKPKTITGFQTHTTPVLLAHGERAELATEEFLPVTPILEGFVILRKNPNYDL
UniProt P35579: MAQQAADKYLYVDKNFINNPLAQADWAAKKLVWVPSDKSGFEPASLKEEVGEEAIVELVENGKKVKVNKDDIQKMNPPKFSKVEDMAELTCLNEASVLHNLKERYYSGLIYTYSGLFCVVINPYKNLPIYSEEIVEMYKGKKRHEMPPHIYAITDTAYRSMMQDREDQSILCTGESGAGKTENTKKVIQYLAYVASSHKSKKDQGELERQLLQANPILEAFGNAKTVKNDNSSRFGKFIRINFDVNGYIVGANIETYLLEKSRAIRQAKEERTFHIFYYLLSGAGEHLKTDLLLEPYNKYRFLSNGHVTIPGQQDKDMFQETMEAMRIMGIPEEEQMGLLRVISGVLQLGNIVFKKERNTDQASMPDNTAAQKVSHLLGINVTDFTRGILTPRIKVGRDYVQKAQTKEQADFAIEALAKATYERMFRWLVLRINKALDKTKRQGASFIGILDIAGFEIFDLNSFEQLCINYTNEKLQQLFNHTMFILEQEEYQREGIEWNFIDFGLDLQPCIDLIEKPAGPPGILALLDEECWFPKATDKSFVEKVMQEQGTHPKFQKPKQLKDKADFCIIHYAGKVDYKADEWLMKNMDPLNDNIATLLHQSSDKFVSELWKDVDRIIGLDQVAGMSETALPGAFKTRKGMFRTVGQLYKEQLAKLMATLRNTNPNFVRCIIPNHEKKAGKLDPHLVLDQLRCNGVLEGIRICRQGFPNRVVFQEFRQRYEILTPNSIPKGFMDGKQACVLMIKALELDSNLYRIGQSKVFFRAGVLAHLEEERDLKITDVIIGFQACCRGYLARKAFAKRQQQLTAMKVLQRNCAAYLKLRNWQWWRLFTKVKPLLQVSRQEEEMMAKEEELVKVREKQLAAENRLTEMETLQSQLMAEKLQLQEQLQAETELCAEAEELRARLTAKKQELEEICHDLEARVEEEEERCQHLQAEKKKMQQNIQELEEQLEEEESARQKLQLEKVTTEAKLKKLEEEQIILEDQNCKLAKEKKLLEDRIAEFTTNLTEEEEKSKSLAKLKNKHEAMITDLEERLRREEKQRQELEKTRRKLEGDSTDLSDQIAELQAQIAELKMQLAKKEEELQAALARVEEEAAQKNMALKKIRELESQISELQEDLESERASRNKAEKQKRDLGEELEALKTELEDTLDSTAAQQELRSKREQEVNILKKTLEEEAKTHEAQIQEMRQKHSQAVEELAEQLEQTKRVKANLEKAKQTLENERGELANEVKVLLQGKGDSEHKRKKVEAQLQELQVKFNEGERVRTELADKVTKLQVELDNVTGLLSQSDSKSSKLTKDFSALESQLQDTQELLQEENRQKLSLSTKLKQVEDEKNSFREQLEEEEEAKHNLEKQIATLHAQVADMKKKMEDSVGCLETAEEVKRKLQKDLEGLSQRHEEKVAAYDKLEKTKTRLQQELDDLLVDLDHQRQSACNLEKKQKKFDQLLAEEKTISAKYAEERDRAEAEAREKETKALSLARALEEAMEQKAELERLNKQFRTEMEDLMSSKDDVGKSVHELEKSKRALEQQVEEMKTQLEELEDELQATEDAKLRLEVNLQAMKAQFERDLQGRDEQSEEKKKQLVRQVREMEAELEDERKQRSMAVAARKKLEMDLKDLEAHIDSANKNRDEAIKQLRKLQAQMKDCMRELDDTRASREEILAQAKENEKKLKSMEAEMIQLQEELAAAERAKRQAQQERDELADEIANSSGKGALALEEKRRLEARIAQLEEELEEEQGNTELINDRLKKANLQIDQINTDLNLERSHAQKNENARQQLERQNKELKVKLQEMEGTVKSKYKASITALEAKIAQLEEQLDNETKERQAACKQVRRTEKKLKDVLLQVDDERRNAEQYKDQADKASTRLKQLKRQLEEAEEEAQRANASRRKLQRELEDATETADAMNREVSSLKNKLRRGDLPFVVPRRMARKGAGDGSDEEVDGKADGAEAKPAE
UniProt P46379: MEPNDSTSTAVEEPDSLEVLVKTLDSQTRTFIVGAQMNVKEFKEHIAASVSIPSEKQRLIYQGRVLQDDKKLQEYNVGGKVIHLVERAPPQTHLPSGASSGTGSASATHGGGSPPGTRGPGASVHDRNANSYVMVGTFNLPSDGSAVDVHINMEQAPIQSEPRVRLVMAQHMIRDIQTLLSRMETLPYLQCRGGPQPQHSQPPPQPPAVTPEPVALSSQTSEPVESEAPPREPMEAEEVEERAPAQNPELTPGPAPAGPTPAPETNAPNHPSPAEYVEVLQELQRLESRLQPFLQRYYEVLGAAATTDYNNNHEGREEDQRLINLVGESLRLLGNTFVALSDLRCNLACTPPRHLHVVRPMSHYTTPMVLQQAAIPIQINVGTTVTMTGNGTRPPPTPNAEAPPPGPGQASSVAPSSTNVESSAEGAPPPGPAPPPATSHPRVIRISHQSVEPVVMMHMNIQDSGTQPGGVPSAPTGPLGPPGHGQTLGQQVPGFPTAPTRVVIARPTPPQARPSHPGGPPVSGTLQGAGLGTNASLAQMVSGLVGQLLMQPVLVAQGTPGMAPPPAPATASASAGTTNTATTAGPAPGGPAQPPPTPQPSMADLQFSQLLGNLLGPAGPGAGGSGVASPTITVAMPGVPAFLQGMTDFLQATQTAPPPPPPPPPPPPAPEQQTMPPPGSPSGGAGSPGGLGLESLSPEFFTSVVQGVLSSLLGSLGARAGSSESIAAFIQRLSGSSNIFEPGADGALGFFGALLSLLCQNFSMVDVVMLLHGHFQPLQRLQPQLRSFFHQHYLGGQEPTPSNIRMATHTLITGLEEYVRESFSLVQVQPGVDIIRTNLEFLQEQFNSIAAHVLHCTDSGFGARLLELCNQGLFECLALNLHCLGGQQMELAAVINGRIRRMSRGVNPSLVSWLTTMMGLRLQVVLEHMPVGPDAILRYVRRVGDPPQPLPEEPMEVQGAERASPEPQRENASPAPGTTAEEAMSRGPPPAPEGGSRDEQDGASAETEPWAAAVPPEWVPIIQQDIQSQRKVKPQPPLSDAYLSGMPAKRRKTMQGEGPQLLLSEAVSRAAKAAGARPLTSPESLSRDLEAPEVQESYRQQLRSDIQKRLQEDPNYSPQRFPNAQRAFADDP

This assay addresses T1, LZTR1-HA (UniProt Q8N653).
T1 sequence: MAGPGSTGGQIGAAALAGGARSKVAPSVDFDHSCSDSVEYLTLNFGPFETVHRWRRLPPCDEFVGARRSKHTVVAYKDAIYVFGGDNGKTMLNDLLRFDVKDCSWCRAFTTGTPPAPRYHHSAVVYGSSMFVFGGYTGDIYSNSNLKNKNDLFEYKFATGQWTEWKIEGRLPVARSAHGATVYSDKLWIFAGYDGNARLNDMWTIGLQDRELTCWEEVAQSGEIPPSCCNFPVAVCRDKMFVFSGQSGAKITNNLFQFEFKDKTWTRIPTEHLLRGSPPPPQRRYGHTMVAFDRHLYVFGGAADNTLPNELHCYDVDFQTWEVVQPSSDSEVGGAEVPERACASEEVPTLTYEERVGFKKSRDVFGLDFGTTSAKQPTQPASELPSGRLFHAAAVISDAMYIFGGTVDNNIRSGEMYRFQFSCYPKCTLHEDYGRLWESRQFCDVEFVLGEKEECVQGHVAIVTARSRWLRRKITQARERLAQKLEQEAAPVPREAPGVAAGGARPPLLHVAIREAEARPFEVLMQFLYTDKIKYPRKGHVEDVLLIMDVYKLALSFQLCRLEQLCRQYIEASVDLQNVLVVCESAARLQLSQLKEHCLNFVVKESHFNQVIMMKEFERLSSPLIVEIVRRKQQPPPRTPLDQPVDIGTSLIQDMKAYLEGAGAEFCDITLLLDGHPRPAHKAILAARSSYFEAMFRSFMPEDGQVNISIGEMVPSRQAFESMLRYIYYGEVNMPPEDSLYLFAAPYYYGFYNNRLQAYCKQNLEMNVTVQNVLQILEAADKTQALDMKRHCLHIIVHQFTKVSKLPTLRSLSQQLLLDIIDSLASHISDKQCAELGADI
The assay can be described thus: co-IP; LZTR1-HA precipitated from YUHIMO lysates with anti-HA magnetic beads; eluted with SDS sample buffer; Western blot; non-induced cells as control. (In general: In western blotting, separated proteins are transferred to a membrane and probed.)

Results are given in words; binding and its absence hold for the method and conditions named. In cells and extracts the contact can be indirect. Some results given as binding are weak or reduced against the parent protein; the word gives no strength. Sequences can lack the tags named with a protein.

As to USP9X (from UniProt Q93008 1-2554), the binding entry is given as “binds”. For “PSMD2 (proteasome 26S subunit ubiquitin receptor, non-ATPase 2) (from UniProt Q13200 1-908)” the value was “binds”. For the substance “sequestosome 1 (SQSTM1/p62) (from UniProt Q13501 1-440)”, the binding result is “binds”. For CUL4B (from UniProt Q13620 1-913) the value was “binds”. As to BAG3 (from UniProt O95817 1-575), the binding result is listed as “binds”. For “myosin IIa (MYH9) (from UniProt P35579 1-1960)” the value was “binds”. BAG6 (from UniProt P46379 1-1132): the binding result is recorded as “binds”.
